For assay [1], the target named is T1, spe-39 (C. elegans) (UniProt Q23288).
T1 sequence: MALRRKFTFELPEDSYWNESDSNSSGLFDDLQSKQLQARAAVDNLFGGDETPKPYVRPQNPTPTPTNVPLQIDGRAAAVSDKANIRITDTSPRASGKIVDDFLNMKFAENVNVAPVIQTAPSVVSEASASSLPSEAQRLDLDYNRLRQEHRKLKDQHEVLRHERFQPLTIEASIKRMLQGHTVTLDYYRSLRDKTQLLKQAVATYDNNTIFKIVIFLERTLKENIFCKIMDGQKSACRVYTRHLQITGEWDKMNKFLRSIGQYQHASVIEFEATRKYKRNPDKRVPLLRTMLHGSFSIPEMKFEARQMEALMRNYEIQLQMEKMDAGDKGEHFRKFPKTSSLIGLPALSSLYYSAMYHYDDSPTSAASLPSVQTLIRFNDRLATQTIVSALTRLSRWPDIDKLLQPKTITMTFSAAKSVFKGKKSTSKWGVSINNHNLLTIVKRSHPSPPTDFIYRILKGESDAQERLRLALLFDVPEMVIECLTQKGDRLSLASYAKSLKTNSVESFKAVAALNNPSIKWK
Briefly: two-hybrid; yeast two-hybrid, growth graded; snx-6 as prey, FERARI subunits as bait; n = 3 growth experiments with n = 6 independent yeast colonies each.

The target of assay [2] is RABS-5 (C. elegans). Briefly: two-hybrid; yeast two-hybrid of Rab GTPases with FERARI members (Supplementary Fig. 5b); bait and prey not told.

These are yes or no findings as the source states them, for the method shown. For some assays here: Binding can be weak; no strength is given.

As for C. elegans SNX6, the binding result in assay [1] is “no binding”.

B1: Rab10 (protein, UniProt Q94148 1-201)
chain: MARRPYDMLFKLLLIGDSGVGKTCILYRFSDDAFNTTFISTIGIDFKIKTIELKGKKIKLQIWDTAGQERFHTITTSYYRGAMGIMLVYDITNAKSFDNIAKWLRNIDEHASEDVVKMILGNKCDMSDRRVVSRERGEKIAQDHGISFHETSAKLNVHVDTAFYDLAEAILAKMPDSTDEQSRDTVNPVQPQRQSSSGGCC
As for B1, the binding entry in assay [2] was “binds”.

Source of the values: publication PMC9359993.
